This note sets out measurements from publication doi:10.1101/2025.11.25.690588.

Protein sequences can lack the tags named with them.

The subject of the data set is T1, GylR (Mycobacterium smegmatis).
T1 sequence (looked up): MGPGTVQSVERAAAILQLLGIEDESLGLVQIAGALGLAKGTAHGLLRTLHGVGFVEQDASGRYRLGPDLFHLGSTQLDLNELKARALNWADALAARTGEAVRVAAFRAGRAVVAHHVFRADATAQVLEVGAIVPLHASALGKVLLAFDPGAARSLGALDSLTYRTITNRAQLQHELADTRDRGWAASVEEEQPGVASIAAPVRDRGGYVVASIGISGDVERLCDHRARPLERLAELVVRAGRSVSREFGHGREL
As to the kind of experiment: EMSA. Conditions: no G3P; residues 1-254; probe letters rebuilt from the primers and the genome.

For “CACCCCGAACAGGATGAGGATGCCGGCGAACTCGGCGCAGAGTTCTCCGACGAGTGTTCGTCGTGACATGTTGGTCTCCTTGGCTCTTCGAACCGCATGTGTTGTGCGTCATACGAGGCGTGCGTTGTGAACCTAGAAGCCAGAGGTCGGCCGGGCATCACCCGTCGTTCGGCATCGCCGAACACGGCCCCGGTCGACAATGCCGACCCTCGGGGTCGACATGGTCGAACGATTTGGTGATCCTGAAACTTGTGCCAGGCACTGTGCAGTCCGTGGAACGGGCCGCGGCGATACTGCAGCTAC (double strand) [PglpFKD (glpFKD promoter)]”, the binding result is given as “binds”.
